No constants are given. Whether binding was seen depends on the method and setting. In cells and extracts the contact can be indirect. Here binding means that the protein was enriched with, or labelled near, the bait; the list need not be complete.
How the values were obtained:
Assay in all cases: affinity purification with mass spectrometry; 30 mg solubilized nuclear pellet (chromatin fraction) of 293T-REx expressing FS-tagged SCML2 in 50 mM Tris pH 7.5, 200 mM NaCl on Strep-Tactin resin, 1 hr at 4°C; washes with 300 mM NaCl, 0.1% Igepal CA630; eluted in denaturing loading buffer
[1] = molecular target: FS-SCML2A (epitope-tagged SCML2A, wild type) (human) (UniProt Q9UQR0)
[2] = molecular target: FS-SCML2A ΔRBR (epitope-tagged SCML2A lacking the RNA-binding region) (human) (UniProt Q9UQR0)
[3] = molecular target: FS-SCML2B (epitope-tagged SCML2B, wild type) (human)

Sequences of proteins named here, by UniProt entry; tags and fusion partners are left off. A change or cut given only in a name is not applied to a line headed by its entry.
UniProt Q9UQR0: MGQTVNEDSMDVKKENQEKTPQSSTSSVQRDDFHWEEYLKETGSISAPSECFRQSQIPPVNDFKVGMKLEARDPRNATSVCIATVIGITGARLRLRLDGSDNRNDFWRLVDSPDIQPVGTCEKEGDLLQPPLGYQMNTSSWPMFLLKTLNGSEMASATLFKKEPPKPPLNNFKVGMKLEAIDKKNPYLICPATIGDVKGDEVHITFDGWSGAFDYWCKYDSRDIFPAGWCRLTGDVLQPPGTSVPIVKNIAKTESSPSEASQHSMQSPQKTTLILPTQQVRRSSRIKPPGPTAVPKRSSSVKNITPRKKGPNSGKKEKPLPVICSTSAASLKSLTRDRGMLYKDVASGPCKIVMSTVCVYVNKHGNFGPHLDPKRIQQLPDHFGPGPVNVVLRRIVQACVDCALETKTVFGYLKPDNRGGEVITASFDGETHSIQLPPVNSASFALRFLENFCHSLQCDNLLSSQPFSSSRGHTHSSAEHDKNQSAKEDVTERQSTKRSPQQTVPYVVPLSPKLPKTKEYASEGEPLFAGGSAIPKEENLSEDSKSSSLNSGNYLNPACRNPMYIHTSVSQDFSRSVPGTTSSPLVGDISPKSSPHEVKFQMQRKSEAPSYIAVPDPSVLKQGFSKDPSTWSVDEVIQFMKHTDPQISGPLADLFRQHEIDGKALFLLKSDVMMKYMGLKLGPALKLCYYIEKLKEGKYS
UniProt P35226: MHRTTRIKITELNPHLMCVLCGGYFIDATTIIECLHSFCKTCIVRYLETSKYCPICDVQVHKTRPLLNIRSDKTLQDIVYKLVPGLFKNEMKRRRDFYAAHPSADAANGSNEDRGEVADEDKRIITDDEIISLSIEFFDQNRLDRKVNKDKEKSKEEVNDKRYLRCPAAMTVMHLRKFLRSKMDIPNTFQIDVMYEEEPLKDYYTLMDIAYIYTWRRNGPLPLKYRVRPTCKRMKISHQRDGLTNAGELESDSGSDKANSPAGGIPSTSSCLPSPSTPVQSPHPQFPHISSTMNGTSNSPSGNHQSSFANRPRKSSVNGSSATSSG
UniProt Q14781: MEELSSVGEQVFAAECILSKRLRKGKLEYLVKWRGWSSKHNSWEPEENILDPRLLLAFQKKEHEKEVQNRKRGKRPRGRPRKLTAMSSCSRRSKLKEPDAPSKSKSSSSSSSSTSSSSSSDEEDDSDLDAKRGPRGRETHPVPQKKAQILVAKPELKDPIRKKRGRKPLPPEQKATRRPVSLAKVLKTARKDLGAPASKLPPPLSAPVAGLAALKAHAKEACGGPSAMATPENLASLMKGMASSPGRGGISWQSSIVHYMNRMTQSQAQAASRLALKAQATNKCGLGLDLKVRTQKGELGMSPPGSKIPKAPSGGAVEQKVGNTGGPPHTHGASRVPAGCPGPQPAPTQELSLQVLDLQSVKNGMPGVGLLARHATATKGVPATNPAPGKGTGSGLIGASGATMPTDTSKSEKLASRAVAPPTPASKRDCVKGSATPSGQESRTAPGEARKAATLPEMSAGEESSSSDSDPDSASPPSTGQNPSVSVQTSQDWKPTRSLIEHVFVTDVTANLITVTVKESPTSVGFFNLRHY
UniProt Q9HC52: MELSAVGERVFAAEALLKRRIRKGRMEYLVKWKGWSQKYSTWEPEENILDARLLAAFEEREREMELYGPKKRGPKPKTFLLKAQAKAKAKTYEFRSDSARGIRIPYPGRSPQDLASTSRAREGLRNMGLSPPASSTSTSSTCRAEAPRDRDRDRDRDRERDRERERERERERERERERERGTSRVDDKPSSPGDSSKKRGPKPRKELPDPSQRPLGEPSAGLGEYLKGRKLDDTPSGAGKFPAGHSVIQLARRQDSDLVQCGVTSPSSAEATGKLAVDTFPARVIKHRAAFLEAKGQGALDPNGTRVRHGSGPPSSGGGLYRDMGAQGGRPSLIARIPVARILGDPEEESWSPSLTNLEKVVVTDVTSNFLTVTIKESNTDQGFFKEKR
UniProt Q06587: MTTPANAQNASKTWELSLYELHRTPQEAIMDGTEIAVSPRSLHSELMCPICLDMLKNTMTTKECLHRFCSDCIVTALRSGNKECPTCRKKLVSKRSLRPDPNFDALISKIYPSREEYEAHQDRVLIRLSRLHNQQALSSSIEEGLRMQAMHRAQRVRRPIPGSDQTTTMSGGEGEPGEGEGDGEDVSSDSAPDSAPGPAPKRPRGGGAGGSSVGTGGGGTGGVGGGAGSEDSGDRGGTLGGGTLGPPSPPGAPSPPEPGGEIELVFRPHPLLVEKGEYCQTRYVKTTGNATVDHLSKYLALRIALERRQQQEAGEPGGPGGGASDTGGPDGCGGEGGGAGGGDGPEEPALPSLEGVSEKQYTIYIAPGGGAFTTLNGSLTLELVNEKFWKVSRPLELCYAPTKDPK
UniProt Q99496: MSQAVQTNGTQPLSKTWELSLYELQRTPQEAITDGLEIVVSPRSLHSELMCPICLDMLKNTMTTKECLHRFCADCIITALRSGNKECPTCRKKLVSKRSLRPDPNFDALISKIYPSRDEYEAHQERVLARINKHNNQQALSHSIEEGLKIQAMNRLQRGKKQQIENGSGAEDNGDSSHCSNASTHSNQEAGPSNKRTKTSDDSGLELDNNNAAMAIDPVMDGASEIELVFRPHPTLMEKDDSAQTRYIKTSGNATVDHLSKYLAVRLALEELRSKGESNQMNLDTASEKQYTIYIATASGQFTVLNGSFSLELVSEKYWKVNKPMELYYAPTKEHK
UniProt Q96GD3: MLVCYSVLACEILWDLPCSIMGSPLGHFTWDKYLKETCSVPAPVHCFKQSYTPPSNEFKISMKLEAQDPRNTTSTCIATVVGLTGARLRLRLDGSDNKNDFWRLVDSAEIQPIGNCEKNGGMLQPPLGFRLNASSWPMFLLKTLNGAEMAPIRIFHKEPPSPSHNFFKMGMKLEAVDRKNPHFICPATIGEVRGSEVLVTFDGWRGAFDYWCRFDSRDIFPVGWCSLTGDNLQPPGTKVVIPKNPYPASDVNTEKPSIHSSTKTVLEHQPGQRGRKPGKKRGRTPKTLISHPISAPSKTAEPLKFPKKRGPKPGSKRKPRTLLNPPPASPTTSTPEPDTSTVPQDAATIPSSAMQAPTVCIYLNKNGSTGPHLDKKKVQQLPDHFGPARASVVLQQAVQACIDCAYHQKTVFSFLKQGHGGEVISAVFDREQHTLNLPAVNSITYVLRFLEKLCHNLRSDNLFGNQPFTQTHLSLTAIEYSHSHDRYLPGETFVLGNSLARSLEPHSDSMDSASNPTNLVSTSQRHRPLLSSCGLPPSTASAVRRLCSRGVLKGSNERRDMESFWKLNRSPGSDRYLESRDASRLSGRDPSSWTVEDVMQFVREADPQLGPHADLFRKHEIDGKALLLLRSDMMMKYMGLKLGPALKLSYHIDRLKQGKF
UniProt Q93009: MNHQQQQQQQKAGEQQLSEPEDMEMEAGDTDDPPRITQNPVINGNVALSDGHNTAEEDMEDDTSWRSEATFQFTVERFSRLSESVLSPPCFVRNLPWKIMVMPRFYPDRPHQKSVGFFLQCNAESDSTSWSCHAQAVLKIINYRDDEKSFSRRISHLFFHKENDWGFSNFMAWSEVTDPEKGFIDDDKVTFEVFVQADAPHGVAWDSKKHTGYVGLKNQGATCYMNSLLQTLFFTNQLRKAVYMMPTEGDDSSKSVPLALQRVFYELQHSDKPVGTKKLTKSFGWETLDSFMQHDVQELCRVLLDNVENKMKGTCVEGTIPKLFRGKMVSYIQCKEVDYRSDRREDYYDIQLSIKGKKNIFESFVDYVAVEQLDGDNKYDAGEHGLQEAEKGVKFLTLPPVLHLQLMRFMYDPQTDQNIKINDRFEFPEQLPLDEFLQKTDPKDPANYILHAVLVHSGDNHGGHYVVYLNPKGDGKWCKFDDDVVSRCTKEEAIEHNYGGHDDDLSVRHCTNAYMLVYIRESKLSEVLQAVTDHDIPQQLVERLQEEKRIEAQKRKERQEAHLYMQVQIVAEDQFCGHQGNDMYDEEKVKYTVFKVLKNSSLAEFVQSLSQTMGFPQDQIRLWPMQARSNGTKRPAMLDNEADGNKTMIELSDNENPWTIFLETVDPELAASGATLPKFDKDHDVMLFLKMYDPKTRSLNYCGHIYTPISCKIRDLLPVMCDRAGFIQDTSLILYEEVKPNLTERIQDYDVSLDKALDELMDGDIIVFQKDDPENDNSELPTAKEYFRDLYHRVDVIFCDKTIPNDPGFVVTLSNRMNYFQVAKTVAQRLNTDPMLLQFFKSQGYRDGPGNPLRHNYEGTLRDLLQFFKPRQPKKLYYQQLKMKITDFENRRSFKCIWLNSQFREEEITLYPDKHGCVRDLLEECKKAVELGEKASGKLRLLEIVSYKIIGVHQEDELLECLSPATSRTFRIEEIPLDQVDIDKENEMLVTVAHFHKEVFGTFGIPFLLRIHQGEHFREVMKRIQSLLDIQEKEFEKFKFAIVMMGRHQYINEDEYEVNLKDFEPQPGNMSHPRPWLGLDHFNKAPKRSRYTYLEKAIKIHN

| Molecule | binding [1] | binding [2] | binding [3] |
| --- | --- | --- | --- |
| BMI1 (from UniProt P35226 1-326) | binds | binds | – |
| CBX2 (from UniProt Q14781 1-532) | binds | binds | – |
| CBX8 (from UniProt Q9HC52 1-389) | binds | binds | – |
| RING1A (from UniProt Q06587 1-406) | binds | binds | – |
| RING1B (from UniProt Q99496 1-336) | binds | binds | – |
| SCMH1 (from UniProt Q96GD3 1-660) | binds | – | – |
| USP7 (from UniProt Q93009 1-1102) | binds | – | – |
| PHC2 (protein, UniProt Q8IXK0 1-858) MENELPVPHTSSSACATSSTSGASSSSGCNNSSSGGSGRPTGPQISVYSGIPDRQTVQVIQQALHRQPSTAAQYLQQMYAAQQQHLMLQTAALQQQHLSSAQLQSLAAVQQASLVSNRQGSTSGSNVSAQAPAQSSSINLAASPAAAQLLNRAQSVNSAAASGIAQQAVLLGNTSSPALTASQAQMYLRAQMLIFTPTATVATVQPELGTGSPARPPTPAQVQNLTLRTQQTPAAAASGPTPTQPVLPSLALKPTPGGSQPLPTPAQSRNTAQASPAGAKPGIADSVMEPHKKGDGNSSVPGSMEGRAGLSRTVPAVAAHPLIAPAYAQLQPHQLLPQPSSKHLQPQFVIQQQPQPQQQQPPPQQSRPVLQAEPHPQLASVSPSVALQPSSEAHAMPLGPVTPALPLQCPTANLHKPGGSQQCHPPTPDTGPQNGHPEGVPHTPQRRFQHTSAVILQLQPASPPQQCVPDDWKEVAPGEKSVPETRSGPSPHQQAIVTAMPGGLPVPTSPNIQPSPAHETGQGIVHALTDLSSPGMTSGNGNSASSIAGTAPQNGENKPPQAIVKPQILTHVIEGFVIQEGAEPFPVGRSSLLVGNLKKKYAQGFLPEKLPQQDHTTTTDSEMEEPYLQESKEEGAPLKLKCELCGRVDFAYKFKRSKRFCSMACAKRYNVGCTKRVGLFHSDRSKLQKAGAATHNRRRASKASLPPLTKDTKKQPTGTVPLSVTAALQLTHSQEDSSRCSDNSSYEEPLSPISASSSTSRRRQGQRDLELPDMHMRDLVGMGHHFLPSEPTKWNVEDVYEFIRSLPGCQEIAEEFRAQEIDGQALLLLKEDHLMSAMNIKLGPALKIYARISMLKDS | binds | binds | binds weakly |
| PHC3 (protein, UniProt Q8NDX5 1-983) MDTEPNPGTSSVSTTTSSTTTTTITTSSSRMQQPQISVYSGSDRHAVQVIQQALHRPPSSAAQYLQQMYAAQQQHLMLHTAALQQQHLSSSQLQSLAAVQASLSSGRPSTSPTGSVTQQSSMSQTSINLSTSPTPAQLISRSQASSSTSGSITQQTMLLGSTSPTLTASQAQMYLRAQMLIFTPATTVAAVQSDIPVVSSSSSSSCQSAATQVQNLTLRSQKLGVLSSSQNGPPKSTSQTQSLTICHNKTTVTSSKISQRDPSPESNKKGESPSLESRSTAVTRTSSIHQLIAPASYSPIQPHSLIKHQQIPLHSPPSKVSHHQLILQQQQQQIQPITLQNSTQDPPPSQHCIPLQNHGLPPAPSNAQSQHCSPIQSHPSPLTVSPNQSQSAQQSVVVSPPPPHSPSQSPTIIIHPQALIQPHPLVSSALQPGPNLQQSTANQVQATAQLNLPSHLPLPASPVVHIGPVQQSALVSPGQQIVSPSHQQYSSLQSSPIPIASPPQMSTSPPAQIPPLPLQSMQSLQVQPEILSQGQVLVQNALVSEEELPAAEALVQLPFQTLPPPQTVAVNLQVQPPAPVDPPVVYQVEDVCEEEMPEESDECVRMDRTPPPPTLSPAAITVGRGEDLTSEHPLLEQVELPAVASVSASVIKSPSDPSHVSVPPPPLLLPAATTRSNSTSMHSSIPSIENKPPQAIVKPQILTHVIEGFVIQEGLEPFPVSRSSLLIEQPVKKRPLLDNQVINSVCVQPELQNNTKHADNSSDTEMEDMIAEETLEEMDSELLKCEFCGKMGYANEFLRSKRFCTMSCAKRYNVSCSKKFALSRWNRKPDNQSLGHRGRRPSGPDGAAREHILRQLPITYPSAEEDLASHEDSVPSAMTTRLRRQSERERERELRDVRIRKMPENSDLLPVAQTEPSIWTVDDVWAFIHSLPGCQDIADEFRAQEIDGQALLLLKEDHLMSAMNIKLGPALKICARINSLKES | binds | binds | binds weakly |
| L3MBTL3 (protein, UniProt Q96JM7 1-780) MTESASSTSGQEFDVFSVMDWKDGVGTLPGSDLKFRVNEFGALEVITDENEMENVKKATATTTWMVPTAQEAPTSPPSSRPVFPPAYWTSPPGCPTVFSEKTGMPFRLKDPVKVEGLQFCENCCQYGNVDECLSGGNYCSQNCARHIKDKDQKEERDVEEDNEEEDPKCSRKKKPKLSLKADTKEDGEERDDEMENKQDVRILRGSQRARRKRRGDSAVLKQGLPPKGKKAWCWASYLEEEKAVAVPAKLFKEHQSFPYNKNGFKVGMKLEGVDPEHQSVYCVLTVAEVCGYRIKLHFDGYSDCYDFWVNADALDIHPVGWCEKTGHKLHPPKGYKEEEFNWQTYLKTCKAQAAPKSLFENQNITVIPSGFRVGMKLEAVDKKNPSFICVATVTDMVDNRFLVHFDNWDESYDYWCEASSPHIHPVGWCKEHRRTLITPPGYPNVKHFSWDKYLEETNSLPAPARAFKVKPPHGFQKKMKLEVVDKRNPMFIRVATVADTDDHRVKVHFDGWNNCYDYWIDADSPDIHPVGWCSKTGHPLQPPLSPLELMEASEHGGCSTPGCKGIGHFKRARHLGPHSAANCPYSEINLNKDRIFPDRLSGEMPPASPSFPRNKRTDANESSSSPEIRDQHADDVKEDFEERTESEMRTSHEARGAREEPTVQQAQRRSAVFLSFKSPIPCLPLRWEQQSKLLPTVAGIPASKVSKWSTDEVSEFIQSLPGCEEHGKVFKDEQIDGEAFLLMTQTDIVKIMSIKLGPALKIFNSILMFKAAEKNSHNEL | binds | – | – |

From paper PMC4074974
